# These are yes or no findings as the source states them, for the method shown. For part of these data: Binding seen in cells or lysates may run through a third protein. Some binding calls cover weakened binding; strength is not graded here.
# The chains behind the UniProt entries cited, without tags or fusion partners. Residues count along the entry.
# UniProt Q9L9J3: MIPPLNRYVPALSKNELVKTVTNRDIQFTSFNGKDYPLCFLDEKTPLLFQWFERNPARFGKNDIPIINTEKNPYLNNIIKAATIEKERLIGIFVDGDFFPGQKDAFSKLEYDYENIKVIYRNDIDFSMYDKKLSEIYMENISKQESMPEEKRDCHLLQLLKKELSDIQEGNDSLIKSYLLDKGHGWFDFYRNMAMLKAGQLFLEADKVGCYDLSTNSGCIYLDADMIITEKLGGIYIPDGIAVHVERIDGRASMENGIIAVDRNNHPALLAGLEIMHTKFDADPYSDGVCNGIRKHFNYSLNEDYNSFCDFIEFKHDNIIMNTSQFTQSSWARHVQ
# UniProt Q99426: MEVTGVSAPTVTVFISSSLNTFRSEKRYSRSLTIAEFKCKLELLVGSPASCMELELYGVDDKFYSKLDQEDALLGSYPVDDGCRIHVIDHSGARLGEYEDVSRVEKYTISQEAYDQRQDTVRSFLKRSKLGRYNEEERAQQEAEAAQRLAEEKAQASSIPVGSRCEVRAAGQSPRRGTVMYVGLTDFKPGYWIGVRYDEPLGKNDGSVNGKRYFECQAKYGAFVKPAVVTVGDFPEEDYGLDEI
# UniProt Q9BW71, residues 340-556: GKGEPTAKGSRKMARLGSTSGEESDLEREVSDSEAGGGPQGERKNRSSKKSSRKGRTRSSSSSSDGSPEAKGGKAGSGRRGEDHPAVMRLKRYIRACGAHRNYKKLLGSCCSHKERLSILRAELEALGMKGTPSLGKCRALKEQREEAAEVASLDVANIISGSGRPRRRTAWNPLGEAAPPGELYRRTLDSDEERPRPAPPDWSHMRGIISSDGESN
# UniProt P12956, residues 335-609: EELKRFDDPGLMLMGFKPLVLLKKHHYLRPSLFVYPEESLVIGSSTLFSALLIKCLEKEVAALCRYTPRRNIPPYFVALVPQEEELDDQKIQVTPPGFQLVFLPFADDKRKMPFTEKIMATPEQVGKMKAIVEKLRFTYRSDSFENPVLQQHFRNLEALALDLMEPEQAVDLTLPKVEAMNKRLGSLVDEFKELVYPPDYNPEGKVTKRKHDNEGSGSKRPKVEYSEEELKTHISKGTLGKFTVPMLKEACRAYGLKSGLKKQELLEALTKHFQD
# UniProt Q05516, residues 420-673: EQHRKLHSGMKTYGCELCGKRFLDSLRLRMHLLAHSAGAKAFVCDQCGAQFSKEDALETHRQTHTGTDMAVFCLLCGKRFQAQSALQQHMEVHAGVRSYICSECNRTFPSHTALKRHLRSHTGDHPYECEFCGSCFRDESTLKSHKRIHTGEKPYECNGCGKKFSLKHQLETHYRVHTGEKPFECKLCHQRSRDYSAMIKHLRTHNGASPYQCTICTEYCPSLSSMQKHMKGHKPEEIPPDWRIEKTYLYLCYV
# Columns and labels:
# [1] = biological target: SseK1-3xFLAG expressed in HeLa cells (pIZ2047, pBABEpuro-SseK1-3xFLAG) (Salmonella enterica serovar Typhimurium) (UniProt Q9L9J3); assay: co-IP
# [2] = biological target: SseK1 fused to the DNA-binding domain of LexA (pIZ2203, pLEX10-SseK1) (Salmonella enterica serovar Typhimurium strain 14028) (UniProt Q9L9J3); assay: two-hybrid
# [3] = biological target: GST-TBCB (pIZ3509, pGEX-4T-1-TBCB) (human) (UniProt Q99426); assay: pull-down
Substance,binding [2],other results
"3xHA-TBCB expressed in HeLa cells (pIZ3423, pCS2-3xHA-TBCB) (from UniProt Q99426 1-244)",–,binding [1]: binds
"HIRA-interacting protein 3 (HIRIP3), clone from the Jurkat cDNA library (from UniProt Q9BW71 340-556) (domain or fragment)",binds,–
"SseK1-3xFLAG, chromosomal fusion in Salmonella strain SV7071 (14028 sseK1::3xFLAG) (from UniProt Q9L9J3 1-336) (enzyme)",–,binding [3]: binds
"Tubulin-binding cofactor B (TBCB), clones from the Jurkat cDNA library fused to the Gal4 activation domain (from UniProt Q99426 1-244)",binds,–
"X-ray repair cross-complementing protein 6 (XRCC6), clone from the Jurkat cDNA library (from UniProt P12956 335-609) (domain or fragment)",binds,–
"Zing finger and BTB domain-containing protein 16 (ZBTB16), clones from the Jurkat cDNA library (from UniProt Q05516 420-673) (domain or fragment)",binds,–

# — PMC7246435
